Reference: US20230398077A1, “SILICASOME NANOCARRIER FOR METAL-BASED DRUG DELIVERY” (The Regents of the University of California, priority 2020, published 2023)
Some entries share one result that the patent states for a list of compounds.

Assay: Pt drug loading of MSNP/silicasome (EE %, LC %) by ICP-MS/ICP-OES
Type: physicochemical
Conditions: loading at pH 8.5 followed by lipid coating, ICP-MS
Procedure: In various embodiments the silica nanoparticles are loaded with platinum-based drugs using a combination of coordination and electrostatic interactions. Since the silanol group density on the silica nanoparticle surface(s) (e.g., pore surfaces) an important role in the surface binding of the activated platinum compound (e.g., DACHPt) (see FIG. 2), it is desirable to control the pH during drug loading. Thus, the loading efficiency and capacity was optimized through control of. pH, incubation time, the soaking process, and variation of the drug/particle ratio, etc. Thus, for example, 20 mg MSNP resuspend in 1 mL HEPES buffer (0.1 M, pH 8.5) was mixed with DACHPt complex (4 mg Pt, equal to 8 mg OX). The mixture was sonicated in water bath sonication for 10 mins and then spun down at 15 K rpm for 10 mins. Non-bound Pt in the supernatant, as detected by ICP-OES was used to determine the loading capacity [%=(total Pt—Pt in supernatant)/amount of MSNP*100} and loading efficiency [%=(total Pt—Pt in supernatant)/total Pt*100].
Sixty-five nm bare MSNPs were synthesized at 18 L scale and purified by extensive acidic ethanol washing to remove the CTAC detergent, as reported previously^[4b]. In order to determine the optimal loading condition, we experimented with multiple rounds of drug loading to find the optimal pH, incubation time, sonication condition, and particle/drug feed ratio, etc. […]

With diaminoplatinum(II) [DAPt] the “improvement in drug loading (LC % and EE %) compared to passive drug loading” value was 5-9 fold.
